Assay [1] has as its target BaeS periplasmic domain (BaeS^P) (E. coli) (UniProt P30847). As to the kind of experiment: SEC; analytical gel filtration of purified BaeS^P (S4A Fig); Superdex 75, 20 mM HEPES, 0.3 M NaCl, 5% glycerol, pH 7 in the purification; both purified. For orientation: In gel filtration, larger molecules generally elute earlier.
Assay [2] concerns the target T1, EnvZ sensory kinase tagged with mYFP (E. coli), P0AEJ4.
T1 chain: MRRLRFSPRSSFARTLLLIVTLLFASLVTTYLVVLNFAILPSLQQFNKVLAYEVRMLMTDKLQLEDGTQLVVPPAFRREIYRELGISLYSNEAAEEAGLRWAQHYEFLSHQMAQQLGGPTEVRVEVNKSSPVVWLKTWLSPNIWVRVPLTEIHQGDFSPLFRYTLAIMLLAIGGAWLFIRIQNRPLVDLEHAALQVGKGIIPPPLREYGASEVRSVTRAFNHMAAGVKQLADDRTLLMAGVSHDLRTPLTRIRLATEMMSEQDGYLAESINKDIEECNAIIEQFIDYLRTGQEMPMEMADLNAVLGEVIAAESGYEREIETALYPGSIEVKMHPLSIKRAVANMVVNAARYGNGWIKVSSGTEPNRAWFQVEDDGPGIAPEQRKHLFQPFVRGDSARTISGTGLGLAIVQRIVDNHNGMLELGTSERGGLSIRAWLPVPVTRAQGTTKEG
Description: FRET or BRET; homo-FRET between the mYFP tags, read as fluorescence anisotropy of live E. coli cells immobilised on a coverslip in a flow chamber; motility buffer pH 7 without EDTA, 22-23 °C; CuSO4 added (0.5-100 μM for BaeS, 10 μM for BaeS^H4/A and the other kinases, 30 μM for mYFP^D). As to conditions: remark: other sources report otherwise. For orientation: Bioluminescence resonance energy transfer reports proximity on the nanometre scale.

Assay [3] deals with T2, CpxA sensory kinase tagged with mYFP (E. coli), P0AE82.
T2 chain: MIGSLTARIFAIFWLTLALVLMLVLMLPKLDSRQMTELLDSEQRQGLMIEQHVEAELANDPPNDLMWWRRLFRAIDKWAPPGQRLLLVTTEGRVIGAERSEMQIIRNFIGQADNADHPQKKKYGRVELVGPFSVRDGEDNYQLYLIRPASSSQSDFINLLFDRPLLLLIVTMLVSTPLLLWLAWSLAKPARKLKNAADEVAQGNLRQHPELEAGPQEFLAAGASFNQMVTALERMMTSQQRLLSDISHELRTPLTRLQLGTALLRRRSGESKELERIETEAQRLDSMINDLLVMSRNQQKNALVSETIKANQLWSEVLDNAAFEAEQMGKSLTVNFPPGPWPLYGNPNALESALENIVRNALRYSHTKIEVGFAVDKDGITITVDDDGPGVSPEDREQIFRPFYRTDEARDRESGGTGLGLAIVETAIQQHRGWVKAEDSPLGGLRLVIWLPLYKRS
The description is as above. The following applies: remark: other sources report otherwise.

Results are given in words; binding and its absence hold for the method and conditions named. For part of these data: Binding seen in cells or lysates may run through a third protein. For part of these data: Tags and fused reporters may be left off the sequences shown.

B1: BaeS periplasmic domain (BaeS^P) (domain or fragment, UniProt P30847 38-168)
chain: GFIDYIKHGNEQRLQLLSDALGEQYAQHGNWRFLRNNDRFVFQILRSFEHDNSEDKPGPGMPPHGWRTQFWVVDQNNKVLVGPRAPIPPDGTRRPILVNGAEVGAVIASPVERLTRNTDINFDKQQRQTSW
For the molecule B1, the binding entry in assay [1] was “no binding”.

B2: EnvZ sensory kinase tagged with mYFP, P0AEJ4 1-450 (receptor)
chain: T1 chain
Consider B2, for which the binding result in assay [2] is “no binding (tested: 10 μM CuSO4)”.

B3: CpxA sensory kinase tagged with mYFP, P0AE82 1-457 (receptor)
chain: T2 chain
With B3, the binding entry in assay [3] is reported as “no binding (tested: 10 μM CuSO4)”.

The values are drawn from publication PMC4780735.
